In article PMC7819943, “Rice protein-binding microarrays: a tool to detect cis-acting elements near promoter regions in rice” one finds binding signal data, which are given here for 42 sequences.

The list shows a part of the results.

For this assay, the target named is T1, OsSMF1 (Oryza sativa, UniProt Q6ZLB0 1-436).
T1 sequence: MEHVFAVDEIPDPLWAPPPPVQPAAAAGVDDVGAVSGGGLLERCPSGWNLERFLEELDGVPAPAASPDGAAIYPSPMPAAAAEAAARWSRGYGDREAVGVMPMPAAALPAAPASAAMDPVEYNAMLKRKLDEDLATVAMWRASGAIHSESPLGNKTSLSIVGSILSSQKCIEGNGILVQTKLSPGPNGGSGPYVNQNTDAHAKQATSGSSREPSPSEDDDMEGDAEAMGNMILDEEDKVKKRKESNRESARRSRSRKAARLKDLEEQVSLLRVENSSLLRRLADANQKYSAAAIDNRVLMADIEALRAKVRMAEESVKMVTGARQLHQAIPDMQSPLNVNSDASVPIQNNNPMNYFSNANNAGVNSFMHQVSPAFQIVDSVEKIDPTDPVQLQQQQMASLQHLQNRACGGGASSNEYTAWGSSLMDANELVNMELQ
The experiment in a line: protein-binding microarray (RPBM); PBS, 2% BSA, 51.3 ng/ul salmon testes DNA, 50 uM zinc acetate, 200 nM TF, 25 C, 1 h; high values mean tight binding. To be noted: protein: recombinant; tags: N-terminal polyhistidine and DsRed monomer fusion (pET32a); chain copies: 2; label: CyDye5-dUTP incorporated in the synthesized complementary strand; 3' TTTTT single-stranded linker to array surface; dsDNA, one strand shown. The essentials:
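For the binding signal, per-feature fluorescence intensity was read in arbitrary units on an Axon 4000B scanner. Before scanning, a 2% BSA-blocked custom Agilent array made double-stranded with Cy5-dUTP was washed after 1 h at 25 °C with 200 nM protein and 50 µM zinc acetate. The proteins were Ni–NTA-purified transcription factors with N-terminal polyhistidine and DsRed fusions, expressed in E. coli BL21-CodonPlus.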
For “GAGGGAGAGGTGGCCGCGTCACCCTCGGGCCCGACTCCCCCGGAGTCACCTAGTGCAG”, the binding signal is 11200 fluorescence intensity (a.u.).

With “GTTCACGGCCACCACTATCGTGTTGTCTTTGTGTCGTTGTCGGAGTCACCTAGTGCAG”, the binding signal was 3310 fluorescence intensity (a.u.).

For the sequence “CATAGCCCTCTGTCGCGGGCGCCGCTGTCCACCGTCCTCCCGGAGTCACCTAGTGCAG”, the binding signal is 43900 fluorescence intensity (a.u.).

As for “GACGGCGGACACCTCAGCCGATGCAGAGATCTCCGCACGACGGAGTCACCTAGTGCAG”, the binding signal is 3240 fluorescence intensity (a.u.).

For the sequence “TTACTTAATTACTATAGATAATTAGTTGATTAGTGTTACTCGGAGTCACCTAGTGCAG”, the binding signal is 3500 fluorescence intensity (a.u.).

For the sequence “GCGAAAGGCTCTAAAATCGATGATCATCCTGGTCACGTGGCGGAGTCACCTAGTGCAG”, the binding signal was 3740 fluorescence intensity (a.u.).

On to “ATAGTGGTCCAAAGCTGACGTGGCCAAGACTGGCCCACATCGGAGTCACCTAGTGCAG”, for which the binding signal was 14700 fluorescence intensity (a.u.).

Regarding “TCTCAGGACCGAGTCAGCAATGACGCGGTTTGTACTACTACGGAGTCACCTAGTGCAG”, the binding signal was 9520 fluorescence intensity (a.u.).

“TGTCCCCGAACCGGATCTGCCCGATGCTCGCCGTCAGCATCGGAGTCACCTAGTGCAG”: the binding signal is 4300 fluorescence intensity (a.u.).

As for “TGGCTGTTCTTATTTTGGGATGGAGGTAGTATTGTTTTCGCGGAGTCACCTAGTGCAG”, the binding signal is 4070 fluorescence intensity (a.u.).

“TTATAAGGTGGGACGAAAATAACCCCGTGTTTCCGTGACGCGGAGTCACCTAGTGCAG”: the binding signal is 3800 fluorescence intensity (a.u.).

Consider “CCTTACGCGAGAGAGAGAGAGAGAGAGAGAGAGAGCGAGCCGGAGTCACCTAGTGCAG”, for which the binding signal is 27800 fluorescence intensity (a.u.).

As for “GCCTTCGCCGCCTCTGCATCCTTCTCCGGCGGCGCCAGGTCGGAGTCACCTAGTGCAG”, the binding signal is 3160 fluorescence intensity (a.u.).

On to “TTTTCCAATTAAGAAAATATGCTGACATAGATATATTGTACGGAGTCACCTAGTGCAG”, for which the binding signal was 4190 fluorescence intensity (a.u.).

“AGTGGCCACCCCTTGCAACGTCAGATCATTTCAACTATTACGGAGTCACCTAGTGCAG”: the binding signal was 4940 fluorescence intensity (a.u.).

On to “CCGTCCACGCGCGATTCCTCCCCTCCACCCGCGCCATCTCCGGAGTCACCTAGTGCAG”, for which the binding signal was 27700 fluorescence intensity (a.u.).

In the case of “AGATTAGTTTTCCCATATATTTCTTGTCAGTCGTCGTCATCGGAGTCACCTAGTGCAG”, the binding signal is 3760 fluorescence intensity (a.u.).

As to “CCAGTACCACCACGTACGTCCACCACCACCTCCACCTCCGCGGAGTCACCTAGTGCAG”, the binding signal was 4950 fluorescence intensity (a.u.).

“TGACCTACTTGCACTTATAATTTATAGTATTATGATGTGTCGGAGTCACCTAGTGCAG”: the binding signal was 3290 fluorescence intensity (a.u.).

For the sequence “GCAGATTCGCCGCTGCCACCGCATCCCGCCCACCCACCGCCGGAGTCACCTAGTGCAG”, the binding signal was 4230 fluorescence intensity (a.u.).

With “CTGGTGCTGCATCTACCTGATCCATCGTACCATTAATTAGCGGAGTCACCTAGTGCAG”, the binding signal was 22900 fluorescence intensity (a.u.).

In the case of “GTCCGGCGACGGTTGCCGCGCCGGCTGCTCGCTGGCCATCCGGAGTCACCTAGTGCAG”, the binding signal was 3270 fluorescence intensity (a.u.).

Regarding “GATGAAAGGTGAGGCCCACTGTCAGTGGCTCAGGCCTGTACGGAGTCACCTAGTGCAG”, the binding signal was 15800 fluorescence intensity (a.u.).

With “AATAGGTGCAACTATTGGTTGCTTAAGTGTGATCCTATCACGGAGTCACCTAGTGCAG”, the binding signal was 3400 fluorescence intensity (a.u.).

Regarding “ATAAGAATATGGTATACATGTGTATTCATATGTTCAAACACGGAGTCACCTAGTGCAG”, the binding signal was 3520 fluorescence intensity (a.u.).

In the case of “CCATGGATGCCGACGTCGTAATGGCTTCTCTCTCTGCTGTCGGAGTCACCTAGTGCAG”, the binding signal is 3830 fluorescence intensity (a.u.).

With “TCTCACTGTTACCGTACGCGACCACACTTTATATCGGACCCGGAGTCACCTAGTGCAG”, the binding signal is 4010 fluorescence intensity (a.u.).

As to “GTAGAGGAACATTTTGTCCCTAGTCAGTTGAGTGTCAGGACGGAGTCACCTAGTGCAG”, the binding signal is 3230 fluorescence intensity (a.u.).

Turning to “AAATTCCCACACACACACACACACACACACACACACACACCGGAGTCACCTAGTGCAG”, the binding signal was 3330 fluorescence intensity (a.u.).

For the sequence “GAAATTTTCTGCACGTACGTGTACGTGTATGCTCGTGCTGCGGAGTCACCTAGTGCAG”, the binding signal was 5440 fluorescence intensity (a.u.).

Consider “ACGGCTGCGGCTTCCTTGTGCGTCGTGACCCGCGCCCTGACGGAGTCACCTAGTGCAG”, for which the binding signal was 3980 fluorescence intensity (a.u.).

With “CGCGCGCGCGCACGTACGTACGCACGCGACACCGCCCACCCGGAGTCACCTAGTGCAG”, the binding signal is 3200 fluorescence intensity (a.u.).

“GTCGTAGGTTAGGGCATAGCCGCGTAGGCGGCCAGCGGGGCGGAGTCACCTAGTGCAG”: the binding signal is 4920 fluorescence intensity (a.u.).

With “GGCCTGATGATGGAATGTGTCGGCTTAGGGATTGTAGTGTCGGAGTCACCTAGTGCAG”, the binding signal is 3950 fluorescence intensity (a.u.).

Consider “CTCCACACAGACACACATCCCACCCCACCCACATACACACCGGAGTCACCTAGTGCAG”, for which the binding signal is 3610 fluorescence intensity (a.u.).

On to “CGCCAACACGACGCTGTGCCGTGGCGCGCCGACAATCATCCGGAGTCACCTAGTGCAG”, for which the binding signal is 3600 fluorescence intensity (a.u.).

Consider “TGATAACATGTTGTAAACTTCTCTAGGCATTACCAATATTCGGAGTCACCTAGTGCAG”, for which the binding signal is 3440 fluorescence intensity (a.u.).

As to “AATTAAGGTAGGAGGAGTAGTTGCTTGCCTCCGTCCTGATCGGAGTCACCTAGTGCAG”, the binding signal was 26800 fluorescence intensity (a.u.).

As for “CTTCCGTGCCCTAGCTTCCCACCCTTCCAGCGAGAGAACACGGAGTCACCTAGTGCAG”, the binding signal is 3250 fluorescence intensity (a.u.).

Regarding “GATCTACACGTTAGTCTACGCACCTATGCGTGCCTAAGCGCGGAGTCACCTAGTGCAG”, the binding signal is 32400 fluorescence intensity (a.u.).

In the case of “GACAACTTGATAGAGTGTGACACGCTCTTGTGAATAATCTCGGAGTCACCTAGTGCAG”, the binding signal is 14100 fluorescence intensity (a.u.).

Turning to “TCTACTGCAATTAGTTGATTCAGCTAGTAGCAAACATAATCGGAGTCACCTAGTGCAG”, the binding signal was 54800 fluorescence intensity (a.u.).
